Experimental data reported in PMC12561182, “Gal3‐CaN‐Smurf1 Complex Sequestrates FLCN‐FNIPs to Facilitate TFEB Activation in Response to Endomembrane Damage” (Advanced Science, 2025).
Numbering of substitutions follows the chain as printed. No constants are given. Whether binding was seen depends on the method and setting. In cells and extracts the contact can be indirect. Binding calls can cover weak binding; strength is not graded here. Where a sequence is shown, tags or fusion partners need not be part of it. Values belong to the molecule of their own block, whether it stands above or below them.

What was measured:
[1] = molecular target: T1, HA-FNIP2-K466R (UniProt Q9P278); experiment: co-IP; both partners in HEK293 cells (transfected tagged constructs and/or endogenous proteins); lysis in 50 mM Tris-HCl pH 8.0, 150 mM NaCl, 1% NP40, 0.5% sodium deoxycholate; beads at 4 °C overnight, washed with PBS; in some panels cells treated with LLOMe (1 mM, 2 h) or DMSO, or with siRNA or overexpression of a third protein
T1 sequence: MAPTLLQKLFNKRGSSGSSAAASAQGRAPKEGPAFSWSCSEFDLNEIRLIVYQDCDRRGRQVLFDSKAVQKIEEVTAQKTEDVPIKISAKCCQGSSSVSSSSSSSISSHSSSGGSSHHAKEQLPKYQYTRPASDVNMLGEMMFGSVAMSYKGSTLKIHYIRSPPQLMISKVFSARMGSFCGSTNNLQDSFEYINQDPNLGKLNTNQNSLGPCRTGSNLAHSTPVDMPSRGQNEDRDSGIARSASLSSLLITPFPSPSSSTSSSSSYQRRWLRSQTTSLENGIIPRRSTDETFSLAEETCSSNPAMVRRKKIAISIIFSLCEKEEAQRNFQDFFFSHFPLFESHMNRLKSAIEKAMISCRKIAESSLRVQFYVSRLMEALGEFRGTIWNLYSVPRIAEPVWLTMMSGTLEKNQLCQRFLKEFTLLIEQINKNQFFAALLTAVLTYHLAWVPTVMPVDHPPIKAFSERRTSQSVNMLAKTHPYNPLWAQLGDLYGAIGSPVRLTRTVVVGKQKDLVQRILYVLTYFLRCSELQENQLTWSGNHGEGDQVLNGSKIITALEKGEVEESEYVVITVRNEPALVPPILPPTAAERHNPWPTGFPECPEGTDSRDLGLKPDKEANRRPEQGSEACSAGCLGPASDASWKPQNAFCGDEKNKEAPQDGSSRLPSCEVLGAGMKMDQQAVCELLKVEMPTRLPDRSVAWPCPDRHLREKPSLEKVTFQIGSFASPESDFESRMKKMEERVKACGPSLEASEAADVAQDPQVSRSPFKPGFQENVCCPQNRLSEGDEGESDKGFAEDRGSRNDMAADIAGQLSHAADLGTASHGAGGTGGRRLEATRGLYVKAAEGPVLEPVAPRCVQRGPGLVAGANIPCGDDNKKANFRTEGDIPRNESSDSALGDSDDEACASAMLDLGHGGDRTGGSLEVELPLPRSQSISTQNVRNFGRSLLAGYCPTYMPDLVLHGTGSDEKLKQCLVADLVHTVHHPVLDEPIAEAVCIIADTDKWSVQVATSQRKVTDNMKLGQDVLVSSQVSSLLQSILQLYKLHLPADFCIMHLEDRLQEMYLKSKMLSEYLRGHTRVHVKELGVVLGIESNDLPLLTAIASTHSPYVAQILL

[2] = molecular target: T2, HA-FLCN (UniProt Q8NFG4); experiment: as above
T2 sequence: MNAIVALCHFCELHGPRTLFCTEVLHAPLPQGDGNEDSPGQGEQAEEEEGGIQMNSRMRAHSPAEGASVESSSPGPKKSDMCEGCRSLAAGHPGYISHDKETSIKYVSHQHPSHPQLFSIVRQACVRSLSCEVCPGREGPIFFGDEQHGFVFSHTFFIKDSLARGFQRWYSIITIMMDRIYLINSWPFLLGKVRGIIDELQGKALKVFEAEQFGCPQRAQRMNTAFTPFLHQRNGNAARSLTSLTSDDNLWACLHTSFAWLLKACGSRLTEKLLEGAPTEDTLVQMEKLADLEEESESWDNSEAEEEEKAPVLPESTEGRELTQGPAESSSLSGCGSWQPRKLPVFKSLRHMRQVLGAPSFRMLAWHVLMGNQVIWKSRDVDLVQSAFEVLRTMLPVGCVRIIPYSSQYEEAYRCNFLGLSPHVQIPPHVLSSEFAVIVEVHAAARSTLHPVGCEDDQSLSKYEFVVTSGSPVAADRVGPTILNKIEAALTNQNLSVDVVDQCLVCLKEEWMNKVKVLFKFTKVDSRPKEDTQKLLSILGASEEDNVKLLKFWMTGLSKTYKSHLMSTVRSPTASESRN

[3] = molecular target: T3, HA-FNIP2 (UniProt Q9P278); experiment: as above
T3 sequence: T1 sequence with R466K

[4] = molecular target: T4, Flag-FNIP2 (UniProt Q9P278); experiment: as above
T4 sequence: T1 sequence with R466K

[5] = molecular target: T5, HA-FNIP2 (1-391) (UniProt Q9P278); experiment: co-IP; tagged protein expressed in HEK293 cells (lysate on beads, 4 °C overnight), then incubated with the bacterial-expressed protein purified from E. coli; in some panels cells treated with LLOMe (1 mM, 2 h) or DMSO, or with siRNA or overexpression of a third protein; which side was precipitated is not told for each panel; only the binder purified
T5 sequence: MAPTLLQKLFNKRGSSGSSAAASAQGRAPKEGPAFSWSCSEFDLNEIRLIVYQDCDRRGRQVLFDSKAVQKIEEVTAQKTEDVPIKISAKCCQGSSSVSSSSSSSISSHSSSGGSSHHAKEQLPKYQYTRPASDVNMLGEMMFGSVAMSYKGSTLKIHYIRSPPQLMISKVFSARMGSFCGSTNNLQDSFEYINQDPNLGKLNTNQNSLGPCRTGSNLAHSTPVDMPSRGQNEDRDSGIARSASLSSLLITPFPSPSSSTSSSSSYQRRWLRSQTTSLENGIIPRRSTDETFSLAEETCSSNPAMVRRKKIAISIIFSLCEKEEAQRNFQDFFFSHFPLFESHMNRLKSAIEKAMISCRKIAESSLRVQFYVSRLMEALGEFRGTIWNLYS

[6] = molecular target: T3, HA-FNIP2; experiment: as above
[7] = molecular target: GST-PPP3CB (1-66); experiment: pull-down; GST pull-down: GST fusion purified from E. coli on beads, tagged partner expressed in HEK293 cells; 4 °C overnight, washed with PBS; only the target purified
[8] = molecular target: GST-PPP3CB (22-525); experiment: as above

binding [1]: binds
binding [2]: binds
binding [3]: binds
Molecule: Flag-FNIP1

binding [4]: binds
Molecule: HA-PPP3CB (enzyme)

binding [5]: binds
binding [6]: binds
Molecule: His-Flag-PPP3CB (enzyme)

binding [7]: binds
binding [8]: binds
B1: HA-FNIP2 (protein, UniProt Q9P278 1-1114)
chain: T1 sequence with R466K
